PubChem BioAssay AID652243 | Drosophila RNAi Screening Center | 2013
The deposit covers about 24,000 reagents; shown is an unselected part of those with a known target gene and a result. Over the whole deposit, 246 (1%) got an active call. 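Plates not normalised; calls are printed but the firefly/Renilla ratio behind them is not deposited; fold cut for lowering reported inconsistently.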 Raw values are not corrected between plates. Names joined by + are all predicted targets of the reagent. Reagent sequences are not shown. Not given: the amount of reagent.

- Test: 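Fly regulators of androgen-dependent reporter output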 (primary screen)
- Cells: Drosophila S2R+ cells
- Reagent: long dsRNA against Drosophila genes
- Timing: 72 h (48 h, then 24 h hormone)
- Conditions: synthetic androgen R1881 at 10 nM for 24 h
- Measured: 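Firefly light from an androgen-responsive reporter and Renilla control light per well, raw and unnormalised, for each of two replicates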
- Scale: firefly reporter light: higher = more light from androgen-responsive reporter; Renilla control light: higher = more constitutive control signal (cell number, transfection)
- Active means: 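Hit when the log firefly-to-Renilla ratio dropped or increased by a fixed fold versus the mean of GFP or LacZ controls across duplicate plates; lowering cut given as 1.5 and as 3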
- Calls: active = hit: reporter lowered or raised; inactive = no hit

"firefly reporter light, replicate 1","firefly reporter light, replicate 2","Renilla control light, replicate 1","Renilla control light, replicate 2",Call,gene,amplicon
3.50e5,3.46e5,1.94e6,2.65e6,inactive,Osi9 (GeneID 40763),DRSC12278
4.98e5,4.28e5,1.60e6,1.42e6,inactive,Osi9 (GeneID 40763),DRSC28928
49870,1.30e5,8.25e5,1.68e6,inactive,Ir62a (GeneID 3885628),DRSC08250
1.09e5,67648,7.33e5,8.27e5,inactive,p23 (GeneID 41173),DRSC15158
2.16e5,2.38e5,3.54e5,6.00e5,inactive,p23 (GeneID 41173),DRSC27806
9.68e5,8.26e5,1.84e6,1.92e6,inactive,CG41378 (GeneID 5740475),DRSC38719
5.15e5,3.60e5,2.39e6,2.29e6,inactive,CG11635 (GeneID 35808),DRSC06075
1.06e6,9.97e5,2.56e6,2.19e6,inactive,CG11807 (GeneID 36683),DRSC06087
1.14e5,1.11e5,8.65e5,7.54e5,inactive,CG1806 (GeneID 32163),DRSC19787
1.82e5,1.40e5,6.69e5,4.90e5,inactive,peng (GeneID 33112),DRSC20583
4.87e5,5.92e5,7.25e5,7.25e5,inactive,peng (GeneID 33112),DRSC29638
87088,96959,1.07e6,1.09e6,inactive,CG6985 (GeneID 42694),DRSC16164
7.22e5,8.65e5,8.28e5,9.16e5,inactive,CG6985 (GeneID 42694),DRSC24923
6.80e5,7.53e5,1.89e6,1.79e6,inactive,px (GeneID 37573),DRSC23244
4.16e5,4.51e5,9.32e5,9.65e5,inactive,px (GeneID 37573),DRSC25863
7.69e5,7.78e5,7.17e5,9.36e5,inactive,Sbp2 (GeneID 38934),DRSC10766
1.10e6,6.84e5,2.31e6,2.06e6,inactive,tre-1 (retired record) (GeneID 7354469),DRSC38645
4.61e5,4.39e5,2.01e6,3.23e6,inactive,CG13454 (GeneID 39676),DRSC10001
3.11e5,3.12e5,1.01e6,1.16e6,inactive,Polr2E (GeneID 36160),DRSC06100
8.08e5,1.32e6,1.46e6,1.99e6,inactive,CG31729 (GeneID 34736),DRSC02524
2.09e5,1.88e5,2.06e6,2.59e6,inactive,CG31729 (GeneID 34736),DRSC02946
3.26e5,2.60e5,8.34e5,8.19e5,inactive,CG31729 (GeneID 34736),DRSC25841
2.88e5,2.13e5,2.64e6,2.29e6,inactive,pon (GeneID 31394),DRSC18823
9.55e5,9.84e5,1.13e6,1.19e6,inactive,dib (GeneID 45282),DRSC08711
3.27e5,3.41e5,7.13e5,5.97e5,inactive,dib (GeneID 45282),DRSC26980
2.44e5,1.59e5,3.38e6,2.25e6,inactive,Blimp-1 (GeneID 38638),DRSC10496
5.62e5,7.78e5,8.06e5,1.07e6,inactive,Blimp-1 (GeneID 38638),DRSC24305
1.47e5,88640,1.41e6,1.07e6,inactive,CG5860 (GeneID 42095),DRSC15896
3.09e5,2.82e5,1.80e6,1.61e6,inactive,CG12209 (GeneID 36077),DRSC06119
89143,64403,1.55e5,1.86e5,inactive,Gr94a (GeneID 117339),DRSC13597
1.60e5,1.90e5,2.14e6,3.45e6,inactive,Mayo (GeneID 43678),DRSC14300
2.98e5,2.76e5,5.15e6,4.18e6,inactive,CG32795 (GeneID 31270),DRSC18609
4.88e5,4.06e5,4.27e6,4.20e6,inactive,CG32795 (GeneID 31270),DRSC18610
1.44e5,1.36e5,7.19e5,7.78e5,inactive,CG34178 + CG34177,DRSC00351
1.54e5,2.28e5,1.81e6,1.77e6,inactive,loqs (GeneID 34751),DRSC02997
1.18e6,1.14e6,2.41e6,2.28e6,inactive,NimB1 (GeneID 34813),DRSC01880
2.68e5,1.92e5,2.81e6,2.10e6,inactive,CG9568 (GeneID 34227),DRSC03265
56525,1.50e5,4.42e5,9.13e5,inactive,bdwf (GeneID 42057),DRSC15532
6.87e5,7.72e5,2.45e6,2.42e6,inactive,lncRNA:CR9162 (GeneID 12798573),DRSC03151
1.18e6,1.07e6,1.32e6,1.38e6,inactive,Rep (GeneID 37246),DRSC07526
1.02e5,95618,1.00e6,1.33e6,inactive,CG42269 (GeneID 38689),DRSC10670
1.07e5,1.02e5,1.05e6,1.14e6,inactive,CG42269 (GeneID 38689),DRSC10672
9.18e5,9.03e5,9.39e5,1.01e6,inactive,CG42269 (GeneID 38689),DRSC24477
2.63e5,2.81e5,3.21e5,3.58e5,inactive,CG42269 (GeneID 38689),DRSC26685
89728,75662,1.31e6,9.53e5,inactive,AhcyL1 (GeneID 38342),DRSC08647
6.03e5,2.69e5,3.90e5,4.75e5,inactive,AhcyL1 (GeneID 38342),DRSC25573
79996,1.21e5,5.07e5,7.16e5,inactive,CG15356 (GeneID 33370),DRSC00386
2.13e5,2.90e5,3.62e6,3.31e6,inactive,Cyp12a5 (GeneID 42293),DRSC16621
6.00e5,3.78e5,5.35e5,5.11e5,inactive,Cyp12a5 (GeneID 42293),DRSC24826
4.20e5,4.23e5,2.38e6,2.53e6,inactive,east (GeneID 46006),DRSC18770
6.71e5,5.99e5,4.70e5,4.16e5,inactive,east (GeneID 46006),DRSC23626
5.04e5,6.28e5,3.59e6,4.44e6,inactive,CG15115 (GeneID 37192),DRSC06537
2.25e5,1.81e5,2.79e6,2.25e6,inactive,RpLP0 (GeneID 40451),DRSC11878
3.70e5,4.04e5,1.05e6,9.48e5,inactive,RpLP0 (GeneID 40451),DRSC22110
6.57e5,5.57e5,3.38e6,3.81e6,inactive,CG3719 (GeneID 44736),DRSC18493
8.95e5,7.81e5,1.58e6,1.73e6,inactive,ThrRS (GeneID 45784),DRSC02843
1.03e5,1.18e5,8.65e5,9.10e5,inactive,Art3 (GeneID 41837),DRSC16065
4.04e5,5.34e5,7.45e5,1.08e6,inactive,Vajk4 (GeneID 36950),DRSC06589
1.20e5,1.30e5,3.02e6,3.02e6,inactive,Vajk4 (GeneID 36950),DRSC07003
4.66e5,6.02e5,7.73e5,7.79e5,inactive,Vajk4 (GeneID 36950),DRSC25326

Looked up above:
RpLP0 (GeneID 40451) [DRSC22110], Renilla control light, replicate 1 → 1.05e6
AhcyL1 (GeneID 38342) [DRSC25573], firefly reporter light, replicate 2 = 2.69e5
Under “Renilla control light, replicate 1”, CG31729 (GeneID 34736) [DRSC25841] reads 8.34e5
Value for Vajk4 (GeneID 36950) [DRSC06589] in “Renilla control light, replicate 1”: 7.45e5
Value of ThrRS (GeneID 45784) [DRSC02843] under “Call”: inactive
Value of Blimp-1 (GeneID 38638) [DRSC10496] in “firefly reporter light, replicate 1”: 2.44e5
